From the supplement of paper PMC12823440, “Inhibitors supercharge kinase turnover through native proteolytic circuits” (Nature, 2025)
The other results are listed elsewhere or left out. Hit calls seldom repeat between salt and free forms of one compound.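 Kinases were expressed as nanoluciferase fusions in K562 cells and luminescence was read every 4 h between 2 and 18 h as percent of control, DMSO set to 100% and a positive control to 0%. A time point counts as decreased when the signal drops significantly (2 sigma). The hit call is the authors' own, does not follow from the count of time points alone, and its rule is not shown.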

Protein sequences, listed by entry. Tags and fused reporters are not part of them. Lines headed by an entry give the natural chain unless they say otherwise; changes in a name come on top.
UniProt P07949, whole entry, looked up: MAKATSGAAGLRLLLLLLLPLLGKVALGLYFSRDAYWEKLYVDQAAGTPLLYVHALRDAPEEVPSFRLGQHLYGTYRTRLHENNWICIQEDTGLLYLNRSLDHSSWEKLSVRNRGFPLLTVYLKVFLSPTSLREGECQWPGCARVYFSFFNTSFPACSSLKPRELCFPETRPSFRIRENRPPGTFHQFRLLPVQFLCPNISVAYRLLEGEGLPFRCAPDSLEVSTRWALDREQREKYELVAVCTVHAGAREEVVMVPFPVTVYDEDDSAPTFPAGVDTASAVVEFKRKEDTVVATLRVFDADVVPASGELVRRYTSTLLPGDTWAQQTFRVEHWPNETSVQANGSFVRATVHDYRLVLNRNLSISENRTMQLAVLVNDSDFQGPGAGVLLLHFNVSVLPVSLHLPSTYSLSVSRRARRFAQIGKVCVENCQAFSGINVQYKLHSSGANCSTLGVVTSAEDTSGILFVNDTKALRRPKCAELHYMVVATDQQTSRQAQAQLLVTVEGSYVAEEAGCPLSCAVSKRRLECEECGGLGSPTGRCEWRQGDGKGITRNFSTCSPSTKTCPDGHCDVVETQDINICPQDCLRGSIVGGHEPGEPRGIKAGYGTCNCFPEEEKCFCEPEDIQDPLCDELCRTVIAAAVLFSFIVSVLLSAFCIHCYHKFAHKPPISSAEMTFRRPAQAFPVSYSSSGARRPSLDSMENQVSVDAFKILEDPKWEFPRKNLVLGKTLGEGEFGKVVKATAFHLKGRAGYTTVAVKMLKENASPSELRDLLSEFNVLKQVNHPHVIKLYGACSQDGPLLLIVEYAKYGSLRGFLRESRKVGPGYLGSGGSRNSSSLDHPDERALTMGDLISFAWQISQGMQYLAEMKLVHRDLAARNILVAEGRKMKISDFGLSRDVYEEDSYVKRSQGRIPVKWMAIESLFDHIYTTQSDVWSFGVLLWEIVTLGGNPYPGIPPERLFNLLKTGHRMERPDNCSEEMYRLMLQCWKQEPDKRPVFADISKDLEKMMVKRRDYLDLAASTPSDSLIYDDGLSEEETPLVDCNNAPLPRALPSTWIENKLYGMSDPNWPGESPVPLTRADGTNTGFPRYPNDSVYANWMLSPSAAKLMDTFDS
UniProt P07949, whole entry M918T, looked up: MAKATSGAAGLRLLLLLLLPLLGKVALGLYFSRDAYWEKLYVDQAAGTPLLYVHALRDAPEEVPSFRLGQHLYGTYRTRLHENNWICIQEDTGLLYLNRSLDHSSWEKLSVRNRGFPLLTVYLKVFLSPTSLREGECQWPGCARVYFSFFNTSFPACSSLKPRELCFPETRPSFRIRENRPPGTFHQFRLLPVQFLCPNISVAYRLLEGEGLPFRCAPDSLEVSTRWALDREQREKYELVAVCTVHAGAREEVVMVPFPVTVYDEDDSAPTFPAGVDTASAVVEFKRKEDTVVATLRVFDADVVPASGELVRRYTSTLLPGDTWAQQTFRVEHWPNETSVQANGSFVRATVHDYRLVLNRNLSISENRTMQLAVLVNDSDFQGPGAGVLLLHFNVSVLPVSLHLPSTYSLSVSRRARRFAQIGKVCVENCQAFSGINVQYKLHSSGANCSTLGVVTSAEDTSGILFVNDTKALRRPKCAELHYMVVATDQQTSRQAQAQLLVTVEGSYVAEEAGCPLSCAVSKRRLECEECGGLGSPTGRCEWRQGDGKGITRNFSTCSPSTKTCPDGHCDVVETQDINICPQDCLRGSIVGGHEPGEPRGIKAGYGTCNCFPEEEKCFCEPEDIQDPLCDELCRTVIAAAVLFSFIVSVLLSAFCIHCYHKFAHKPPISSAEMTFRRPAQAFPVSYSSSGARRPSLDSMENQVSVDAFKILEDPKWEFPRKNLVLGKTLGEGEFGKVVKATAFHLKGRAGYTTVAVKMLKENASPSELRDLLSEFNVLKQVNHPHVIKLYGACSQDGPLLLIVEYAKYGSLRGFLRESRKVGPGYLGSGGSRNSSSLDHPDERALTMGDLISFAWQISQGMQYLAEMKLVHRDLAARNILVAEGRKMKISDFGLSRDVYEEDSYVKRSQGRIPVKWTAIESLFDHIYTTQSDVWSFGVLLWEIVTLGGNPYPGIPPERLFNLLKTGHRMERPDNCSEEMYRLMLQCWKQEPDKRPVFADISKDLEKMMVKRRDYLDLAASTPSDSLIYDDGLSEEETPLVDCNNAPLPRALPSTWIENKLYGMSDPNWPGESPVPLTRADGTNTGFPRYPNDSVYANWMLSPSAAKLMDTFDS
UniProt Q01974, whole entry: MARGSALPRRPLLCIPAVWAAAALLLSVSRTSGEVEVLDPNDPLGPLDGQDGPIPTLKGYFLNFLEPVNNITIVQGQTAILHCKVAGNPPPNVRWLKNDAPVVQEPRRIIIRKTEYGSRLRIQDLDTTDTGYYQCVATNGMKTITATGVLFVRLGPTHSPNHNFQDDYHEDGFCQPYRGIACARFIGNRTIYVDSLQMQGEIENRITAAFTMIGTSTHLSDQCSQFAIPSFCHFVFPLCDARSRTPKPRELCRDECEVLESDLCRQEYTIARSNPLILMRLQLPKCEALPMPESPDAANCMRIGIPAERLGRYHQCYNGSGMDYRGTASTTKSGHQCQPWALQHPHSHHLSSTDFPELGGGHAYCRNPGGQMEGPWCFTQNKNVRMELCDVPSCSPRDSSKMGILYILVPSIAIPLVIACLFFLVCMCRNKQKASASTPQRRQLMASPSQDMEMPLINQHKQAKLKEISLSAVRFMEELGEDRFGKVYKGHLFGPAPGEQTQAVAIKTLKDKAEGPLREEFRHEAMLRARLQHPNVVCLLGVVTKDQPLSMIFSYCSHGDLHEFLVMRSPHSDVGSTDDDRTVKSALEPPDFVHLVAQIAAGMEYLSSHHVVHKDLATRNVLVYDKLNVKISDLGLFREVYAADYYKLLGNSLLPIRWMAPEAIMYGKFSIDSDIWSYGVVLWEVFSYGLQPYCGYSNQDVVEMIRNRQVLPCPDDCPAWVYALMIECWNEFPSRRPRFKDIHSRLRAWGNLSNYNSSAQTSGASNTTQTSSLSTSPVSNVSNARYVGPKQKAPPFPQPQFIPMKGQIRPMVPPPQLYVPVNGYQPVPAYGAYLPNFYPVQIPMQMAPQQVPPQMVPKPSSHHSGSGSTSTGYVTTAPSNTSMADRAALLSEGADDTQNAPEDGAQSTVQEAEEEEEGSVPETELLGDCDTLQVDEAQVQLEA
UniProt P29597: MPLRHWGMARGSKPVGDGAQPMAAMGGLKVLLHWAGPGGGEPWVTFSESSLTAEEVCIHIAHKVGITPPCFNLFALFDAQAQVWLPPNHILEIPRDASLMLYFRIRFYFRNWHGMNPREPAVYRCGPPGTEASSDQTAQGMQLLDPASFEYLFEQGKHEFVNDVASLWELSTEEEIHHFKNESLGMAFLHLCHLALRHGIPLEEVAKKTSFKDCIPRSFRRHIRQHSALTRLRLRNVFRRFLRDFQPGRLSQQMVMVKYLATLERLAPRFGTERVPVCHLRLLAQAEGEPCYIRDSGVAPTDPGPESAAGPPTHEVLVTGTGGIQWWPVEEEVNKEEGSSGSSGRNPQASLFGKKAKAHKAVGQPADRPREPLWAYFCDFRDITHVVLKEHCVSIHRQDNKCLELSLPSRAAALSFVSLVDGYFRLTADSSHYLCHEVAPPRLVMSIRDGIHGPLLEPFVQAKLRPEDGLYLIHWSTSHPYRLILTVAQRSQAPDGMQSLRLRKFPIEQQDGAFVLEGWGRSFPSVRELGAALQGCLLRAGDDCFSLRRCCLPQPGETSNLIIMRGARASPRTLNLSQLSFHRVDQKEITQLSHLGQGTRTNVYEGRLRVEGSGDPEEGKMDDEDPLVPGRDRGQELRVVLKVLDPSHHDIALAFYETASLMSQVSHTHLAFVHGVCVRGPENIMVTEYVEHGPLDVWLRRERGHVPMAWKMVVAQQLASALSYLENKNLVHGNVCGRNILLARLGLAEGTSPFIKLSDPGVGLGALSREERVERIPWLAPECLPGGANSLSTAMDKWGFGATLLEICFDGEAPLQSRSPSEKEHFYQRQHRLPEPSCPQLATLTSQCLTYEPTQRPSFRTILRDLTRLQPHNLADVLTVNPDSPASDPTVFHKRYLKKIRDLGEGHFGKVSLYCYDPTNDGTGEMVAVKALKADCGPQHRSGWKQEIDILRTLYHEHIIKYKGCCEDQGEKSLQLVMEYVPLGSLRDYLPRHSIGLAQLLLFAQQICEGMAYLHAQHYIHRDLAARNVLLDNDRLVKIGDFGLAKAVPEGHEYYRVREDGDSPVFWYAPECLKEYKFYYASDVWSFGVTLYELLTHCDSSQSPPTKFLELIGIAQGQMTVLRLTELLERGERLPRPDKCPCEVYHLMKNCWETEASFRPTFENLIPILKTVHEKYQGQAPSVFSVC
UniProt Q6PHR2: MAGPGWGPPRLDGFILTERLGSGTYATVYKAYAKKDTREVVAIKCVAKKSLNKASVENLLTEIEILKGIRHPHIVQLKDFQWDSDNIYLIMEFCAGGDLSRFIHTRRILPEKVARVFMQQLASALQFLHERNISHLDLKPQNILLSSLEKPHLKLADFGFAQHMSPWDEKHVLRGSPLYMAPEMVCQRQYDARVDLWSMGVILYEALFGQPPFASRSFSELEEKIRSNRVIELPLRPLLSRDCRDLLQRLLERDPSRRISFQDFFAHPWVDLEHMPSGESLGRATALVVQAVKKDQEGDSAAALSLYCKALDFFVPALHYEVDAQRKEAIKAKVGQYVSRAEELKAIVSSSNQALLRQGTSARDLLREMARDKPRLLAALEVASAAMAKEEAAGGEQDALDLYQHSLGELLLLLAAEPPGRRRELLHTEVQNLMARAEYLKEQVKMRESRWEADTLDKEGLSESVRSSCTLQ
UniProt P07947, whole entry, looked up: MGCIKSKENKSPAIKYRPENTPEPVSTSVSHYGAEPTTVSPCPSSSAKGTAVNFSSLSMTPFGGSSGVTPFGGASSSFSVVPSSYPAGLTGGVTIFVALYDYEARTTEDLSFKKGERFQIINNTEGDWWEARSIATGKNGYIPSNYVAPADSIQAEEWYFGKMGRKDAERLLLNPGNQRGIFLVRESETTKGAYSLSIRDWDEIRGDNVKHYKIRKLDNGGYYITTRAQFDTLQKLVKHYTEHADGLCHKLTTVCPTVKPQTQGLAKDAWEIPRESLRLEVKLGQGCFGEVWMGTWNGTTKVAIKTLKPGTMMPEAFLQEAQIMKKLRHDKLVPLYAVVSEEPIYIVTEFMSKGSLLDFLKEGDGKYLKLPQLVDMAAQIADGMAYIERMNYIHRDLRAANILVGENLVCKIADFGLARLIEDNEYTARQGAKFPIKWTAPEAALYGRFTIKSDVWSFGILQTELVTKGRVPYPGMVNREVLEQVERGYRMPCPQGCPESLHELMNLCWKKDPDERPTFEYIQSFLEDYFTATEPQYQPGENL
UniProt P43403: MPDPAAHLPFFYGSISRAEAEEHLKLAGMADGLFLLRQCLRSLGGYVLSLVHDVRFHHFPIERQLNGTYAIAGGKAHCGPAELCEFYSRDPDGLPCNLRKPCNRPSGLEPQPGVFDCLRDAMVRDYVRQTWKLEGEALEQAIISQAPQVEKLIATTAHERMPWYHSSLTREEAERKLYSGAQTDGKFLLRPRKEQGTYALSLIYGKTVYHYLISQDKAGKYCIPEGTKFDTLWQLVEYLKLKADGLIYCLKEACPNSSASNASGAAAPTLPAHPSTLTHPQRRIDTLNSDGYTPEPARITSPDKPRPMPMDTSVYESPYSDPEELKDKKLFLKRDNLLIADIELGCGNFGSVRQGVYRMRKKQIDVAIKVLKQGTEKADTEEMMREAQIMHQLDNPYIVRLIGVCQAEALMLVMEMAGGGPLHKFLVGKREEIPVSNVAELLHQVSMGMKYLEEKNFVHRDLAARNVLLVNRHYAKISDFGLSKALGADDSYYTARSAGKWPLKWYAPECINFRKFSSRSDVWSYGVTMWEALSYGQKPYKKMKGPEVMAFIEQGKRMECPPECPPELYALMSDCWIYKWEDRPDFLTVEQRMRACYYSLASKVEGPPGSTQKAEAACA
UniProt P31749: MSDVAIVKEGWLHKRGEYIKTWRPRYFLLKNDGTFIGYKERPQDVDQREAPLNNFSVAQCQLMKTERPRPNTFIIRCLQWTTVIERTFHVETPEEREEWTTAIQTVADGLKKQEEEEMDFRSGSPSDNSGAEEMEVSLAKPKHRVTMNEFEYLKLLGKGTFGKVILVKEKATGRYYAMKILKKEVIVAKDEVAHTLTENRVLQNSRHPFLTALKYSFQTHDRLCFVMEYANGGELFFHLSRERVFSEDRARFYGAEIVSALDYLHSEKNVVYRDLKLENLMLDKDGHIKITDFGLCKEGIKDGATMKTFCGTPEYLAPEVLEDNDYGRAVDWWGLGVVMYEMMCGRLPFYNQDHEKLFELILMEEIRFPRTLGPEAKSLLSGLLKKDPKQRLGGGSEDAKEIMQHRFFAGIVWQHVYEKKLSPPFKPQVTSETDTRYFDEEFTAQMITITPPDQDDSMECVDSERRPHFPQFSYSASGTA

Assays:
Conditions in all cases: K562; 2-18 h
RET = RET (UniProt P07949); assay: kinase-Nluc reporter destabilization hit call (1 = scored as downregulated) (binary); higher = compound decreases kinase abundance
[1] = molecular target: RET_M918T (clone: RET_mut) (UniProt P07949); assay: as above
RIOK1 = RIOK1 (UniProt Q9BRS2); assay: as above
RIPK1 = RIPK1 (UniProt Q13546); assay: as above
RIPK2 = RIPK2 (UniProt O43353); assay: as above
ROR2 = ROR2 (UniProt Q01974); assay: as above
RPS6KA1 = RPS6KA1 (UniProt Q15418); assay: as above
SPHK1 = SPHK1 (UniProt Q9NYA1); assay: as above
SRC = SRC (UniProt P12931); assay: as above
STK24 = STK24 (UniProt Q9Y6E0); assay: as above
STK38 = STK38 (UniProt Q15208); assay: as above
SYK = SYK (UniProt P43405); assay: as above
TEC = TEC (UniProt P42680); assay: as above
TYK2 = TYK2 (UniProt P29597); assay: as above
ULK3 = ULK3 (UniProt Q6PHR2); assay: as above
YES1 = YES1 (UniProt P07947); assay: as above
ZAK = ZAK (UniProt Q9NYL2); assay: as above
ZAP70 = ZAP70 (UniProt P43403); assay: as above
ABL1 = ABL1 (UniProt P00519); assay: number of time points (of 5) at which kinase-Nluc abundance scored as decreased, DMSO-normalised (count); higher = more persistent destabilization
AKT1 = AKT1 (UniProt P31749); assay: as above

| Compound | kinase-Nluc reporter destabilization hit call (RET) | kinase-Nluc reporter destabilization hit call [1] | kinase-Nluc reporter destabilization hit call (RIOK1) | kinase-Nluc reporter destabilization hit call (RIPK1) | kinase-Nluc reporter destabilization hit call (RIPK2) | kinase-Nluc reporter destabilization hit call (ROR2) | kinase-Nluc reporter destabilization hit call (RPS6KA1) | kinase-Nluc reporter destabilization hit call (SPHK1) | kinase-Nluc reporter destabilization hit call (SRC) | kinase-Nluc reporter destabilization hit call (STK24) | kinase-Nluc reporter destabilization hit call (STK38) | kinase-Nluc reporter destabilization hit call (SYK) | kinase-Nluc reporter destabilization hit call (TEC) | kinase-Nluc reporter destabilization hit call (TYK2) | kinase-Nluc reporter destabilization hit call (ULK3) | kinase-Nluc reporter destabilization hit call (YES1) | kinase-Nluc reporter destabilization hit call (ZAK) | kinase-Nluc reporter destabilization hit call (ZAP70) | number of time points (ABL1) | number of time points (AKT1) |
| --- | --- | --- | --- | --- | --- | --- | --- | --- | --- | --- | --- | --- | --- | --- | --- | --- | --- | --- | --- | --- |
| CNC(=O)CN1CCC(Oc2cc3c(Nc4cccc(Cl)c4F)ncnc3cc2OC)CC1 [Sapitinib] (10 µM) | inactive: 0 | inactive: 0 | inactive: 0 | inactive: 0 | inactive: 0 | inactive: 0 | inactive: 0 | inactive: 0 | inactive: 0 | inactive: 0 | inactive: 0 | inactive: 0 | inactive: 0 | inactive: 0 | inactive: 0 | inactive: 0 | inactive: 0 | inactive: 0 | 0 | 0 |
| CNc1cc2c(Nc3cccc(Br)c3)ncnc2cn1 (10 µM) | inactive: 0 | inactive: 0 | inactive: 0 | inactive: 0 | inactive: 0 | inactive: 0 | inactive: 0 | inactive: 0 | inactive: 0 | inactive: 0 | inactive: 0 | inactive: 0 | inactive: 0 | inactive: 0 | inactive: 0 | inactive: 0 | inactive: 0 | inactive: 0 | 0 | 0 |
| CC(C)n1c(CO)nc2c(F)cc(-c3nc(Nc4ccc(CN5CCNCC5)cn4)ncc3F)cc21 (10 µM) | inactive: 0 | inactive: 0 | inactive: 0 | inactive: 0 | inactive: 0 | inactive: 0 | inactive: 0 | inactive: 0 | inactive: 0 | inactive: 0 | inactive: 0 | inactive: 0 | inactive: 0 | inactive: 0 | inactive: 0 | inactive: 0 | inactive: 0 | inactive: 0 | 4 | 0 |
| C=CC(=O)Nc1cc(Nc2nccc(-c3cn(C)c4ccccc34)n2)c(OCC(F)(F)F)nc1N(C)CCNC [AST5902  (trimesylate)] (2.5 µM) | inactive: 0 | inactive: 0 | inactive: 0 | inactive: 0 | inactive: 0 | inactive: 0 | inactive: 0 | inactive: 0 | inactive: 0 | inactive: 0 | inactive: 0 | inactive: 0 | inactive: 0 | inactive: 0 | inactive: 0 | inactive: 0 | inactive: 0 | inactive: 0 | 2 | 0 |
| CCOC(=O)c1c(Nc2ccccc2Cl)oc(/C=C2\C=Nc3ncccc32)c1O (10 µM) | inactive: 0 | inactive: 0 | inactive: 0 | inactive: 0 | inactive: 0 | inactive: 0 | inactive: 0 | inactive: 0 | inactive: 0 | inactive: 0 | inactive: 0 | inactive: 0 | inactive: 0 | inactive: 0 | inactive: 0 | inactive: 0 | inactive: 0 | inactive: 0 | 0 | 0 |
| CC(C1CC1)n1cnc2c(NCc3cccc(C(F)(F)F)c3)nc(NCCN(C)C)nc21 (stereo not given) (10 µM) | inactive: 0 | inactive: 0 | inactive: 0 | inactive: 0 | inactive: 0 | inactive: 0 | inactive: 0 | inactive: 0 | inactive: 0 | inactive: 0 | inactive: 0 | inactive: 0 | inactive: 0 | inactive: 0 | inactive: 0 | inactive: 0 | inactive: 0 | inactive: 0 | 0 | 0 |
| NC(=O)c1ccccc1Nc1ccnc(Nc2cccc(O)c2)n1 (10 µM) | inactive: 0 | inactive: 0 | inactive: 0 | inactive: 0 | inactive: 0 | inactive: 0 | inactive: 0 | inactive: 0 | inactive: 0 | inactive: 0 | inactive: 0 | inactive: 0 | inactive: 0 | inactive: 0 | inactive: 0 | inactive: 0 | inactive: 0 | inactive: 0 | 5 | 0 |
| O=C1OC(COc2ccccc2[N+](=O)[O-])CC1Cc1ccccc1 (stereo not given) (10 µM) | inactive: 0 | inactive: 0 | inactive: 0 | inactive: 0 | inactive: 0 | inactive: 0 | inactive: 0 | inactive: 0 | inactive: 0 | inactive: 0 | inactive: 0 | inactive: 0 | inactive: 0 | inactive: 0 | inactive: 0 | inactive: 0 | inactive: 0 | inactive: 0 | 0 | 0 |
| Cc1ncc(-c2cc(F)c(O)c(F)c2)cc1-c1cc(F)c(O)c(F)c1 (10 µM) | inactive: 0 | inactive: 0 | inactive: 0 | inactive: 0 | inactive: 0 | inactive: 0 | inactive: 0 | inactive: 0 | inactive: 0 | inactive: 0 | inactive: 0 | inactive: 0 | inactive: 0 | inactive: 0 | inactive: 0 | inactive: 0 | inactive: 0 | inactive: 0 | 0 | 0 |

Limited to kinase-Nluc reporter destabilization hit call (SPHK1), for 2 of the compounds above:
Compound | kinase-Nluc reporter destabilization hit call (SPHK1)
CNC(=O)CN1CCC(Oc2cc3c(Nc4cccc(Cl)c4F)ncnc3cc2OC)CC1 [Sapitinib] (10 µM) | inactive: 0
CCOC(=O)c1c(Nc2ccccc2Cl)oc(/C=C2\C=Nc3ncccc32)c1O (10 µM) | inactive: 0
